Here are results for one molecule from US20110263483A1 (UNIVERSITY OF UTAH RESEARCH FOUNDATION, published 2011).

The experiment deals with T1, Robo4 cytoplasmic tail-HA (UniProt Q8C310 494-1012, limits assumed).
T1 construct: domain: cytoplasmic tail; also called Robo4 tail
T1 sequence (looked up): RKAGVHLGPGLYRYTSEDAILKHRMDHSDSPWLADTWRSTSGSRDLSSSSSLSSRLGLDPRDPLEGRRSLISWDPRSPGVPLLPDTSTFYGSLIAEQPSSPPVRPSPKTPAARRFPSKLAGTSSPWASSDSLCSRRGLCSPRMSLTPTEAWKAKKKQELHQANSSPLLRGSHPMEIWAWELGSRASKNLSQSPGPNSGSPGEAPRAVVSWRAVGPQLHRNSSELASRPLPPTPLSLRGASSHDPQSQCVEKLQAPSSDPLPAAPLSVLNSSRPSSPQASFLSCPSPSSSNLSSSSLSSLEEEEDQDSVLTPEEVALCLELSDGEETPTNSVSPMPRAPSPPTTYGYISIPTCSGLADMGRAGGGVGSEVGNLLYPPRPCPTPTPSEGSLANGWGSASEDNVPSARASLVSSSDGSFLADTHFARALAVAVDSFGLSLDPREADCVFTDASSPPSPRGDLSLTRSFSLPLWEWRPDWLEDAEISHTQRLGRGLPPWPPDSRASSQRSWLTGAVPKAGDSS
Put plainly: co-immunoprecipitation from co-transfected HEK 293 cells. The method, then: Robo4 was immunoprecipitated from cell lysates with HA antibodies, and paxillin was detected by western blotting with V5 antibodies. […] Robo4 was immunoprecipitated with HA antibodies, and paxillin was detected by western blotting with V5 antibodies. […] Knock down and reconstitution were visualized by western blotting with paxillin antibodies and quantified by densitometry. Paxillin expression was determined to be 35% of wild-type levels. […] Results are presented as the mean±SE.
Lim4 of Paxillin is required for Interaction with Robo4 and Robo4-dependent Inhibition of Cell Spreading: Although Robo4APIM maintains its interaction with Mena (FIG. 4E), it is possible that this mutation perturbed interaction of Robo4 with proteins other than paxillin. To address this issue definitively, paxillin mutants were generated that disrupt association with Robo4. Paxillin is a modular protein composed of N-terminal leucine/aspartic acid (LD) repeats and C-terminal Lim domains (FIG. 6A). […] To validate this notion, co-immunoprecipitation experiments were performed using HEK 293 cells co-transfected with the Robo4 tail and either paxillin-LD or paxillin-Lim.

B1: paxillin-LD (other, murine, UniProt Q8VI36 1-355, looked up, not shown: small tags and cut ends)
chain: MDDLDALLADLESTTSHISKRPVFLSEEPPYSYPTGNHTYQEIAVPPPVPPPPSSEALNGTVLDPLDQWQPSGSRYAHQQPPSPLPVYSSSAKNSSASNTQDGVGSLCSRAGEEEHVYSFPNKQKSAEPSPTVMSSSLGSNLSELDRLLLELNAVQHSPPGFPADEAESSPPLPGALSPLYGIPENNTPLGGKAGPLVKEKPKRNGGRGLEDVRPSVESLLDELESSVPSPVPAITVNQGEMSSPQRVTSSQQQTRISASSATRELDELMASLSDFKMQGLEQRVDGERPWAAGWPPSSRQSSPEGQDEGGFMAQGKTGSSSPPGGLSKPGSQLDSMLGSLQSDLNKLGVATVAK
notes: domain: LD repeats
For B1, the binding result is recorded as “no binding”.
